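Counter-screen of TSHR antagonist hits in parent HEK293 cells without the receptor, reading intracellular cAMP by an HTRF antibody competition signal; incubation time not stated here. Each compound was titrated in a series from about 0.0037 to 57 µM. The number is a fitted AC50 potency for signal inhibition; lower values mean more potent inhibition. Calls come from curve class and fit quality: full, well-fitted curves score as active, while partial or poorly fitted curves are scored inconclusive.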

Values are in µM. Every entry below has the call inconclusive. These entries are mostly ones the record files as inconclusive; other results of the assay are not listed here. Potencies fitted to partial, single-point or poorly fitting curves are rough. Activity scores are not listed here.

Compound | potency (µM) | curve as filed
Cc1ccc(NC(=O)CSc2nn(-c3ccccc3)c(=S)s2)cc1S(=O)(=O)N(C)C | 2.393 | inhibitor, partial curve, poor fit
CC(C)c1nnc(NC(=O)c2nc(S(=O)(=O)Cc3ccccc3F)ncc2Cl)s1 | 37.93 | inhibitor, partial curve, poor fit
CCN(c1ccccc1)S(=O)(=O)c1ccc(NCC2COc3ccccc3O2)nc1 (stereo not shown) | 37.93 | inhibitor, partial curve, poor fit
COc1cc(C(=O)Nc2nc(-c3cccs3)cs2)cc(OC)c1OC | 42.56 | inhibitor, partial curve, poor fit
O=[N+]([O-])c1ccc(Sc2cccc[n+]2[O-])c2nonc12 | 601.2 | inhibitor, partial curve, poor fit
CCN=c1scc(-c2cccs2)n1/N=C/c1cc(OC)ccc1O | 8.492 | inhibitor, partial curve, poor fit
CC(C)(C)OC(=O)N[C@@H](Cc1ccccc1)c1nnc(S(=O)(=O)Cc2cccc(F)c2)o1 | 15.1 | inhibitor, partial curve, poor fit
O=[N+]([O-])c1ccc(N=Nc2c(Cl)cc(O)cc2Cl)cc1 | 10.69 | inhibitor, partial curve, poor fit
Cn1c(N=Nc2ccc(N3CCOCC3)cc2)[n+](C)c2ccccc21 | 26.85 | inhibitor, partial curve
CC(=O)Nc1ccc(NC(=O)C(C)OC(=O)c2ccccc2C(=O)c2ccc(Cl)c([N+](=O)[O-])c2)cc1 (stereo not shown) | 21.33 | inhibitor, partial curve, poor fit
Cc1cc(/C=C2\Sc3ccccc3N2C)cc(C)[n+]1CC1CCCO1 (stereo not shown) | 1901 | inhibitor, partial curve, poor fit
Cc1cccc(CSCCNC(=O)c2ccc(N(C)S(=O)(=O)c3ccccc3)cc2)c1 | 33.81 | inhibitor, partial curve, poor fit
O=C1C(Nc2ccc(O)cc2)=C/C(=N/S(=O)(=O)c2cccs2)c2ccccc21 | 952.8 | inhibitor, partial curve, poor fit
CC[n+]1c(/C=C/c2ccc(N(C)C)cc2)ccc2ccccc21 | 601.2 | inhibitor, partial curve, poor fit
C=CCSc1nsc(NC(=O)Nc2ccc(F)cc2)n1 | 10.69 | inhibitor, partial curve, poor fit
CCOC(=O)COc1ccccc1/C=C\[N+](=O)[O-] | 7.569 | inhibitor, partial curve, poor fit
COc1cccc(OCC(O)CN2CC(C)CC(C)C2)c1 (stereo not shown) | 12 | inhibitor, partial curve, poor fit
O=C(CSc1nnc(-c2ccncc2)n1Cc1ccco1)Nc1nc(-c2ccccc2)cs1 | 2.686 | inhibitor, partial curve, poor fit
O=C1c2cccc3c([N+](=O)[O-])ccc(c23)C(=O)N1c1ccc(Cl)cn1 | 21.33 | inhibitor, partial curve, poor fit
C/C(=N\NC(=O)c1cccc(Cl)c1)C1C(=O)c2ccccc2C1=O | 19.01 | inhibitor, partial curve, poor fit
O=C(CCc1nnc2n(Cc3ccc(Cl)cc3)c(=O)c3ccccc3n12)N1CCN(c2ccccn2)CC1 | 21.33 | inhibitor, partial curve, poor fit
Cc1ccc(S(=O)(=O)NC(=O)Nc2ccc(N(C)C)cc2)cc1 | 16.94 | inhibitor, partial curve
CCN(c1ccccc1)S(=O)(=O)c1ccc(NC(=O)c2nc(S(C)(=O)=O)ncc2Cl)cc1 | 37.93 | inhibitor, partial curve, poor fit
CC(=O)Nc1ccc(-c2csc(NC(=O)Nc3ccccc3)n2)cc1 | 10.69 | inhibitor, partial curve, poor fit
O=C(Nc1cccc(Cl)c1)c1cc(N=Nc2ccc([N+](=O)[O-])cc2Cl)ccc1O | 151 | inhibitor, partial curve, poor fit
CCCCCc1c2c(cc(O)c1C(=O)O)OC(=O)c1c(cc(OC)cc1C(=O)CCCC)O2 | 16.94 | inhibitor, partial curve, poor fit
CC(=O)N(C1=C(Cl)C(=O)c2ccccc2C1=O)C1CCCCC1 | 75.69 | inhibitor, partial curve, poor fit
CCCCCCCCCC[n+]1cccc2c3ccccc3ccc21 | 9.528 | inhibitor, partial curve, poor fit
O=C1C(SCCO)=C(SCCO)C(=O)c2ccccc21 | 190.1 | inhibitor, partial curve, poor fit
Cc1ccc(S(=O)(=O)/N=C2\C=C(Nc3cccc(C(=O)O)c3)C(=O)c3ccccc32)c(C)c1 | 16.94 | inhibitor, partial curve, poor fit
CN(C)c1ccc(/C=C/c2ccc3c4ccccc4ccc3[n+]2-c2ccccc2)cc1 | 26.85 | inhibitor, partial curve
COc1cc(NC(=O)c2cc3ccccc3cc2O)c(OC)cc1Cl | 5.358 | inhibitor, partial curve, poor fit

Once more, the final 4:

| Compound | potency (µM) | curve as filed |
|---|---|---|
| `O=C1C(SCCO)=C(SCCO)C(=O)c2ccccc21` | 190.1 | inhibitor, partial curve, poor fit |
| `Cc1ccc(S(=O)(=O)/N=C2\C=C(Nc3cccc(C(=O)O)c3)C(=O)c3ccccc32)c(C)c1` | 16.94 | inhibitor, partial curve, poor fit |
| `CN(C)c1ccc(/C=C/c2ccc3c4ccccc4ccc3[n+]2-c2ccccc2)cc1` | 26.85 | inhibitor, partial curve |
| `COc1cc(NC(=O)c2cc3ccccc3cc2O)c(OC)cc1Cl` | 5.358 | inhibitor, partial curve, poor fit |

Source: PubChem BioAssay AID602441 (NCATS, 2012).